Measurements published in patent US20240024520A1, “AUTONOMOUS KNOB DOMAIN PEPTIDES” (UCB BIOPHARMA SRL, priority 2020, published 2024).
Substitutions are numbered along the chain they refer to. Results are given in words; binding and its absence hold for the method and conditions named. Some binding calls cover weakened binding; strength is not graded here.

Chains of the proteins cited; added tags and fusions are not shown. Residues count along the entry.
UniProt P08650, residues 19-1681: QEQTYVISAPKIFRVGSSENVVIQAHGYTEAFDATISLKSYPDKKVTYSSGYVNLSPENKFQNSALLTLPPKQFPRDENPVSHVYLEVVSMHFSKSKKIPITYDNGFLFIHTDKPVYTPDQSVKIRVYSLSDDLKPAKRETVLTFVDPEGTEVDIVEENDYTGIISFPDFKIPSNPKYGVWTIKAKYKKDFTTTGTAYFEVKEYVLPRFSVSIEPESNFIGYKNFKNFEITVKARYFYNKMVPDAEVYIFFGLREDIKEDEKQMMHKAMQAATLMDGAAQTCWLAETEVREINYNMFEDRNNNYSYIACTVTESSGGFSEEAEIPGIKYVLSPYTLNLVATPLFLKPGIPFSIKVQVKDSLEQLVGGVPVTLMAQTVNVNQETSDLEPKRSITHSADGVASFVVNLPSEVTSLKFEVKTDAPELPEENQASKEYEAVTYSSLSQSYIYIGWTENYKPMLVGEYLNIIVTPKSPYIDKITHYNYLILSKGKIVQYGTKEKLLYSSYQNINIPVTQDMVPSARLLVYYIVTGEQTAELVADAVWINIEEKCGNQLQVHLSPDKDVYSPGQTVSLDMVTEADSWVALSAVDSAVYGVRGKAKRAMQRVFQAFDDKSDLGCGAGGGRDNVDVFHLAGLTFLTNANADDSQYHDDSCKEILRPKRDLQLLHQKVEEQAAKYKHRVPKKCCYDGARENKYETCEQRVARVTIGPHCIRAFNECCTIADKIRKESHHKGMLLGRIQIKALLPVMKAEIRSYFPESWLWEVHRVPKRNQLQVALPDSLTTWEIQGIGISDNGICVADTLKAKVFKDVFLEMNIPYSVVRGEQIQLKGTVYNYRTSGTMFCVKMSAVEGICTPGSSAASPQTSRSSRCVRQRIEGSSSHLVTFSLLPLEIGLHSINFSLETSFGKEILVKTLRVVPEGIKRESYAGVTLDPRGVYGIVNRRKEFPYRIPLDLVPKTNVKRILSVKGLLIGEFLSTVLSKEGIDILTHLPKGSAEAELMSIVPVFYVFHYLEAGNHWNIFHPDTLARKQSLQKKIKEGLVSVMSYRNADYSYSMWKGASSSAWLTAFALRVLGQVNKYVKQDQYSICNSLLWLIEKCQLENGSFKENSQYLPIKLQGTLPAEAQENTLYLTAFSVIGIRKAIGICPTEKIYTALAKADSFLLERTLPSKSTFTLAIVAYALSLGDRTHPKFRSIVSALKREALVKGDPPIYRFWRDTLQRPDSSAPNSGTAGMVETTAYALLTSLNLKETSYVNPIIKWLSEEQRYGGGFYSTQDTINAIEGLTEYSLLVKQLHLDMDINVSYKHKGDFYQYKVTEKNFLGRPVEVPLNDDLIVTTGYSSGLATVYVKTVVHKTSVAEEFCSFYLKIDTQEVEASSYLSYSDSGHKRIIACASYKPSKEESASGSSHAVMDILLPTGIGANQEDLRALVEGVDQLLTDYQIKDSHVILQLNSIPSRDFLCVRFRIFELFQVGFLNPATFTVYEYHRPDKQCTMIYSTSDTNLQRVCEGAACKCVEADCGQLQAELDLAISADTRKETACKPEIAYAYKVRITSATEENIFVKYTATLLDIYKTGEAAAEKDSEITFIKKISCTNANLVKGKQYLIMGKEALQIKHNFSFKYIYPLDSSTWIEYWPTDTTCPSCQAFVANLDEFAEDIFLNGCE

B1: ultralong CDR-H3 of SEQ ID NO: 553 displayed on M13 phage (protein, not shown: large carriers)
chain: TTVHQKTKKTCPRGYHYNDRCEFFNTCRVEECCLNGVVNTYGICEYEGGSATYTYEWYVD
B2: ultralong CDR-H3 of SEQ ID NO: 555 displayed on M13 phage (protein, not shown: large carriers)
chain: B1 chain
B3: ultralong CDR-H3 of SEQ ID NO: 554 displayed on M13 phage (protein, not shown: large carriers)
chain: B1 chain with E22D
B4: ultralong CDR-H3 of SEQ ID NO: 526 displayed on M13 phage (protein, not shown: large carriers)
chain: TTVHQRTLKNRNCPDGYGYQRHCTVGEDCTEGCCDNYGRCTTYTDTYTYELYVE
B5: ultralong CDR-H3 of SEQ ID NO: 521 displayed on M13 phage (protein, not shown: large carriers)
chain: TTVHQKTKKTCPLGYNLNDRCDHFNTCRVEKCCQNGVVNAYGICEYAGGNATYTYQWYVH
B6: ultralong CDR-H3 of SEQ ID NO: 528 displayed on M13 phage (protein, not shown: large carriers)
chain: B5 chain with K6R, N16D, K31E, Q34K, N50S, Q56K, H60D
B7: ultralong CDR-H3 of SEQ ID NO: 552 displayed on M13 phage (protein, not shown: large carriers)
chain: TTVHQRTKEERTCPSGCSWFSGCWDTYRCGPSVCCRDGRYGCAAIICRDTYEWYVD
B8: ultralong CDR-H3 of SEQ ID NO: 556 displayed on M13 phage (protein, not shown: large carriers)
chain: TTVHQKTTRVNSCPDGYGYGDGYCYDSGCSASDCYGVDALYSYGHCGCSIYTERPRYEWYVD
B9: ultralong CDR-H3 of SEQ ID NO: 522 displayed on M13 phage (protein, not shown: large carriers)
chain: TTVHQRTKKTCPLGYAINDRCDDLKTCGPDECCLNGVVNAYGICEYEGESATHTYEWYVD
B10: ultralong CDR-H3 of SEQ ID NO: 557 displayed on M13 phage (protein, not shown: large carriers)
chain: B9 chain with Q5L, R6K, T10S
B11: ultralong CDR-H3 of SEQ ID NO: 558 displayed on M13 phage (protein, not shown: large carriers)
chain: B9 chain with R6K, T10S, W57L, D60E
B12: ultralong CDR-H3 of SEQ ID NO: 525 displayed on M13 phage (protein, not shown: large carriers)
chain: TTVVQKTQKSEALCPDGYTRSGRPGCYYGCPDSTCCSRTRTLHVSEHCIAPAYTYNYEWYVD
B13: ultralong CDR-H3 of SEQ ID NO: 523 displayed on M13 phage (protein, not shown: large carriers)
chain: TTVHQKTEPSCPYGYIYTGGCHTTYGCGNYVCYPGSGPPRVGDVSVSYTYEWYVD
B14: K8 knob domain peptide, chemically synthesised, free energy method (peptide)
peptide: VCPDGFNWGYGCAAGSSRFCTRHDWCCYDERADSHTYGFCTGNRV
B15: ultralong CDR-H3 of SEQ ID NO: 527 displayed on M13 phage (protein, not shown: large carriers)
chain: TTVHQKTNRQESCPGSSGDRTICERSWSCGGYHCSAYDTWGAGGSSDCGTCTYTYTYEWYVD

Assays:
[1] = biological target: rat C5 (Rattus norvegicus (rat)) (UniProt P08650); assay: monoclonal phage ELISA
[2] = biological target: rat C5 (Rattus norvegicus (rat)) (UniProt P08650); assay: told with the rat pharmacokinetics
[3] = biological target: rat C5 (Rattus norvegicus (rat)) (UniProt P08650); assay: SPR multi-cycle kinetics, rat C5 immobilised

Binder	binding [1]	binding [2]	binding [3]
B1	binds	–	–
B2	binds	–	–
B3	binds	–	–
B4	binds	–	–
B5	binds	–	–
B6	binds	–	–
B7	binds	–	–
B8	binds	–	–
B9	binds	–	–
B10	binds	–	–
B11	binds	–	–
B12	binds	–	–
B13	binds	–	–
B14	–	binds	binds
B15	binds	–	–
